Reference: PubChem BioAssay AID504791 (Drosophila RNAi Screening Center, 2011)
Purpose: 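Genes of the fly required for silencing by miRNA, siRNA or endo-siRNA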 (primary screen). Cell system: Drosophila S2-derived reporter cells. Reagent: long dsRNA against Drosophila genes, about 150-250 ng dsRNA per well (siRNA assay); about 80-120 ng (miRNA assay). Duration: about 5 days (siRNA assay); about 4 days (miRNA assay). Challenge: copper sulfate induction of reporters: 25 µM (siRNA assay); 200 mM stated (miRNA assay), 1-2 days before reading. Measurement: 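Per-well ratio of Renilla over firefly light, expressed relative to that plate's average ratio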. Call rule: 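a well was a first-pass pick when its plate-scaled ratio rose above 1.5 (siRNA assay) or 1.6 (miRNA assay), or dropped below 0.6; a gene counted only if two separate dsRNAs agreed on retest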.
In all, the deposit lists about 23,000 reagents; this is a random part of those with a known target gene and a result. Of all reagents, 199 (0.86%) are marked active. 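Plate-scaled ratios behind the calls are not deposited; printed light signals are raw; many rows marked increased or decreased are still called inactive.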 Unmarked entries are inactive. Reagents against one gene are numbered here. Names joined by + are all predicted targets of the reagent. Reagent sequences are not shown. Not given: the direction of the score.

predicted target	dsRNA no.	stable siRNA reporter change	stable assay Renilla, run 1 (luminescence)	stable assay firefly, run 1 (luminescence)
Ir56a (Ionotropic receptor 56a)	1		6010	4.10e5
PGRP-SC2 (Peptidoglycan recognition protein SC2)	1	reporter ratio raised past the hit cutoff	8815	3.06e5
PEK (pancreatic eIF-2alpha kinase)	1		7636	3.57e5
Irk1 (Inwardly rectifying potassium channel 1)	1		6046	2.91e5
CG34149	1		7612	3.15e5
Dop1R1 (Dopamine 1-like receptor 1)	1		4031	3.79e5
Dop1R1 (Dopamine 1-like receptor 1)	2		4820	3.46e5
CG9752	1		1.30e5	1.02e6
nAChRalpha3 (nicotinic Acetylcholine Receptor alpha3)	1		5884	2.81e5
Dysb (Dysbindin)	1		8203	4.09e5
CG2983	1		8319	5.63e5
CG2685	1	reporter ratio raised past the hit cutoff	9135	3.30e5
onecut	1		6387	3.80e5
CG10086	1		6942	3.79e5
CG42496 + Ppcdc	1		3676	3.49e5
Fit1 (Fermitin 1)	1		8043	4.13e5
Hmu (Hemomucin)	1		6451	4.02e5
side (sidestep)	1		4175	4.08e5
side (sidestep)	2		6884	4.21e5
side (sidestep)	3		6687	3.74e5
side (sidestep)	4		7555	3.63e5
side (sidestep)	5		6339	3.30e5
rnh1 (ribonuclease H1)	1		6171	3.63e5
SerRS-m (Seryl-tRNA synthetase, mitochondrial)	1		6132	3.44e5
Nup37 (Nucleoporin 37kD)	1		6807	2.69e5
CG13014	1		5472	3.91e5
CG15025	1		6398	2.56e5
EDTP (Egg-derived tyrosine phosphatase)	1		7724	3.93e5
Sgs3 (Salivary gland secretion 3)	1		6727	3.81e5
CG7506	1		8016	5.51e5
gish (gilgamesh)	1		12404	7.01e5
kek6 (kekkon 6)	1		6126	3.71e5
CG12377 (retired record)	1		7740	5.39e5
CG12377 (retired record)	2		8098	4.01e5

Records listed so far whose gene name starts with D or d (3):
predicted target	dsRNA no.	stable siRNA reporter change	stable assay Renilla, run 1 (luminescence)	stable assay firefly, run 1 (luminescence)
Dop1R1 (Dopamine 1-like receptor 1)	1		4031	3.79e5
Dop1R1 (Dopamine 1-like receptor 1)	2		4820	3.46e5
Dysb (Dysbindin)	1		8203	4.09e5
